From PubChem BioAssay (NCATS) come the findings set out here.

Sequences of proteins named here, by UniProt entry; tags and fusion partners are left off. A change or cut given only in a name is not applied to a line headed by its entry.
UniProt P50135: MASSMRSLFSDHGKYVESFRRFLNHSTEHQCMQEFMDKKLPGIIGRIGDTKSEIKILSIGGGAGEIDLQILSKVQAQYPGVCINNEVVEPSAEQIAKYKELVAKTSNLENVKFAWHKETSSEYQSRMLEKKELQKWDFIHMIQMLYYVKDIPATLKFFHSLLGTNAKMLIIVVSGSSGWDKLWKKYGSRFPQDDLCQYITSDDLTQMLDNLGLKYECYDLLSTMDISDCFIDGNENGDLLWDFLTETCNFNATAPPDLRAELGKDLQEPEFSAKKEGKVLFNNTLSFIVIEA
UniProt P11086: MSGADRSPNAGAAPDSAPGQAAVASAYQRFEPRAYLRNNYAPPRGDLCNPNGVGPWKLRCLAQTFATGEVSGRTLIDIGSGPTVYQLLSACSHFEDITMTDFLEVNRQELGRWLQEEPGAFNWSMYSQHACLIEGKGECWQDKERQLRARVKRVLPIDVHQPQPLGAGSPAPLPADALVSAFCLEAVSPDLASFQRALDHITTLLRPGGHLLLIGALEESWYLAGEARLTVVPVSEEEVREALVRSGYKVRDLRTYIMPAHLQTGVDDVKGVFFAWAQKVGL

The term AC50 denotes the concentration giving half of the maximal activity seen. Usually IC50 stands for the concentration at which inhibition is half-maximal.

The other results are listed elsewhere or left out. These are further read-outs of the screen, such as a control signal, another cell line or another target. No call is given for them. For some of these results: The list favours compounds with an active or inconclusive main result. For some of these results: Potencies come from curve fits of mixed quality, noted in brackets.

A short description of test [1]: Validation of Assay for Modulators of Lamin A Splicing (AID 1459). To be noted: Lamin A splicing dual RFP/GFP fluorescence reporter, ratio. The essentials: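 S3 HeLa cells stably expressing a lamin A-EGFP splicing minigene and DsRed2 were seeded at 600 cells/well in Opti-MEM with 2% FBS, pin-dosed, and incubated 48 hrs at 37 °C, 5% CO2. Laser-scanning cytometry (488 nm) gave GFP/RFP total intensity ratio.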

A short description of test [2]: qHTS Assay for Modulators of Human Peripheral Myelin Protein 22 (PMP22) Expression/Activity (AID 1967). To be noted: Cell-based PMP22 reporter, dual-color luciferase ratio. The essentials:
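MSC80 mouse Schwann cells stably carrying Pmp22 promoter–green click beetle luciferase plus EF-alpha–red luciferase control were dosed for 24h at 37 °C. Dual-colour luminescence was filter-overlap corrected; %Activity came from green/red ratio versus untreated cells.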

The nature of test [3]: qHTS Validation Assay to Find Inhibitors of Chronic Active B-Cell Receptor Signaling (AID 485345). To be noted: ABC-DLBCL cells, chronic BCR signaling reporter. The procedure, abridged:
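TMD8 ABC-DLBCL cells stably carrying doxycycline-inducible IkappaBalpha–green luciferase fusion plus unfused red luciferase; compounds 46 uM to 3 nM, 4 h at 37C with doxycycline. Corrected green/red luminescence ratio normalized to 10 uM MG-132 and basal cell wells; curves fitted.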
In general terms: In qHTS, concentration-response curves come from the screen itself.

Test [4] can be described thus: Nrf2 qHTS screen for inhibitors: Validation (AID 493153). To be noted: A549 ARE-Fluc reporter, 18-24 h; AC50: CellTiter-Fluor fluorescence read, measured here: cytotoxicity CellTiter-Fluor AC50; viability change: measured here: cytotoxicity max response. The essentials: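 Luminescence from an ARE-firefly luciferase reporter in A549 cells gives Nrf2 inhibition; an earlier CellTiter-Fluor fluorescent read flags cytotoxicity. Cells in 5% FBS OPTI-MEM received compound dilution series for 18-24 h at 37°C.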

Test [5] can be described thus: qHTS assay for small molecule antagonists of peroxisome proliferator-activated receptor delta signaling (AID 588535).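 Note: cells co-treated with a PPAR-delta agonist as stimulator during compound exposure.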 To be noted: HEK293T PPARd-UAS-bla, beta-lactamase FRET ratio, 18 h; 460 nm channel. The essentials:
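Antagonist-mode beta-lactamase reporter (GeneBLAzer PPAR-delta-UAS-bla) in HEK293T cells, 2% charcoal/dextran FBS, 4000 cells/well. Compound titrations, 18 h at 37 C; CCF4 ratio read, IC50 and efficacy from Hill fits.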

The nature of test [6]: qHTS assay for small molecule antagonists of peroxisome proliferator-activated receptor gamma signaling (AID 588537). To be noted: HEK293 PPARg-UAS-bla, beta-lactamase ratio, antagonist mode; measured here: W460 blue channel. The essentials:
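PPARγ-UAS-bla HEK293 cells (3000/well) in 1% charcoal/dextran-stripped FBS are treated with compound, then stimulated with 50 nM rosiglitazone for 16 h at 37 °C. Read-out is CCF4 β-lactamase fluorescence after 2 h at RT. IC50 comes from Hill fits normalised to rosiglitazone and DMSO.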

Test [7] can be described thus: qHTS assay for small molecule antagonists of vitamin D receptor signaling (AID 588541). To be noted: HEK293T VDR-UAS-bla, beta-lactamase ratio, antagonist mode; measured here: W460 blue channel (cell viability).
The nature of test [8]: qHTS assay for small molecule agonists of retinoid X receptor alpha signaling (AID 588544). To be noted: HEK293T RXRa-UAS-bla, beta-lactamase reporter, 18 h; 530 nm emission.
Test [9] in a line: S16 Schwann cell PMP22 intronic element beta-lactamase assay (AID 624044). The settings on record: S16 rat Schwann cells, PMP22 element beta-lactamase FRET, 24 h. The procedure, abridged:
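Rat S16 Schwann cells with beta-Lac driven by a PMP22 intronic element, compound-treated 24 h at 37 °C. LiveBLAzer FRET B/G read: 460 nm normalized to potassium clavulanate vs DMSO; 535 nm FRET as viability; concentration-effect curves classified.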

The nature of test [10]: A High-Content qHTS Against Drug Library for the Identification of Small Molecules that Inhibit DYT1 Early Onset Primary Dystonia-Associated Cell Pathology (AID 1645839). The settings on record: HEK293 Flp-In EGFP-delE TorsinA, punctate imaging, 48 h; measured here: cell count cytotoxicity. The procedure, abridged:
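Flp-In T-REx 293 cells with tetracycline-inducible EGFP-delE hTOR1A (WT EGFP-hTOR1A as reference), 800 cells/well; compound added with tetracycline, 48 h at 37 C. Fixed, permeabilized cells imaged; %pathology (punctate TorsinA) primary, cell count counterscreen.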

The nature of test [11]: qHTS drug screen for cell cycle checkpoint inhibitors in PARPi-resistant BRCA-mutant ovarian cancer cell lines. (AID 1963452). The settings on record: PEO1/OlaR viability, CellTiter-Glo luminescence, 96 h. The procedure, abridged: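 PEO1, PEO4 and PEO1/OlaR ovarian cancer cells, 600 per well, exposed 96 h at 37C to a dilution series. Viability read by CellTiter-Glo luminescence, normalized to DMSO and empty wells; activity summarized as Z-AUC.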

Test [12] can be described thus: qHTS for identification of novel therapeutic agents for treatment of microphthalmiaassociated transcription factor (MiT) renal cell carcinoma (RCC) (AID 1963991). To be noted: CellTiter-Glo, 48 h; for z-score: stronger effect = lower value. The essentials:
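Viability of three TFE3-fusion renal carcinoma lines measured by CellTiter-Glo after 48 h treatment with each of 1912 compounds at 11 concentrations. Responses scaled between DMSO (100%) and empty wells (0%) before curve fitting.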

Test [13] is described as follows: qHTS assay for small molecule antagonists of glucocorticoid receptor signaling (AID 588533). The settings on record: HeLa MMTV-bla, GRE beta-lactamase ratio, antagonist mode, 18 h; measured here: W530 channel AC50.
Test [14] in a line: qHTS assay for small molecule antagonists of retinoid X receptor alpha signaling (AID 588546).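 Note: cells stimulated with 9-cis-retinoic acid as agonist; % is set by controls: 0 for no effect and ±100 for the full control effect.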 To be noted: HEK293T RXRa-UAS-bla, beta-lactamase ratio, antagonist mode; measured here: W530 green channel, cytotoxicity proxy. The essentials:
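Beta-lactamase reporter inhibition, read as CCF4 fluorescence ratio (ex 405, em 460/530 nm) after 2 h at RT. HEK293T UAS-bla cells, 2500/well, were stimulated with 9-cis-RA at 500 or 100 nM final alongside test compound for 18 h at 37 C.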

In test [15] the target is Histamine N-methyltransferase (Homo sapiens) (UniProt P50135). The experiment in a line: Confirmatory Screen for Target Class Profiling of Small Molecule Inhibitors of Methyltransferases (AID 1745852). The settings on record: MTase-Glo luminescence, SAH detection, recombinant enzyme; measured here: HNMT inhibition potency.
The target in test [16] is Phenylethanolamine N-methyltransferase (Homo sapiens) (UniProt P11086). The test is described as above. To be noted: MTase-Glo luminescence, SAH detection, recombinant enzyme; measured here: PNMT inhibition potency.
The nature of test [17]: qHTS Assay for Lipid Storage Modulators (AID 1519). To be noted: Drosophila S3 cells, BODIPY lipid droplet/cell ratio, laser cytometry, cells loaded with oleic acid. The essentials:
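Cells seeded at 5,000 per well were treated with compounds over a concentration series and loaded with oleic acid (400 uM, as added). Lipid droplet fluorescence (488 nm excitation, 500-530 nm channel) was read by laser-scanning cytometry and normalized to 20 uM Triacsin C.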

[18] abbreviates: measured here: green reporter channel AC50, mouse Pmp22 promoter in mouse Schwann cells.
Setting [19] is: measured here: red reporter channel AC50, EF-alpha promoter control reporter in MSC80 mouse Schwann cells.
Where [20] appears, read: measured here: CBG/CBR ratio read-out.
Setting [21] is: measured here: PEO1 parental viability.

On to `O=C(c1ccc(OCCN2CCCCC2)cc1)c1c(-c2ccc(O)cc2)sc2cc(O)ccc12`, for which the AC50 in test [1] (measured here: GFP channel) is 20 µM [falling, single point]; in test [1] (measured here: RFP channel) it was 12.6 µM [falling, partial curve]; in test [2] (setting [18]), 33.8 µM [falling, full curve]; in [2] (setting [19]) it was 37.9 µM [falling, full curve]; in test [3] (setting [20]), 20.6 µM [falling, partial curve]; in [4] it was 25.9 µM [falling, partial curve, poor fit]. For the same compound, the AC50 in test [6] was 50.1 µM [falling, partial curve, poor fit]; in test [7], 1.41 µM [rising, full curve, poor fit]; in test [9] (measured here: 460 nm blue channel) it was 1.78 µM [falling, full curve, poor fit]; in [9] (measured here: 530 nm viability channel) it was 12.6 µM [rising, full curve, poor fit]; in test [10] it was 0.891 µM [falling, full curve, poor fit]; in [11] (setting [21]), 19.5 µM [falling, single point]. Moreover, the AC50 was 19.5 µM [falling, partial curve] in [11] (measured here: PEO4 viability); 20.9 µM [falling, partial curve] in [12] (TFE3-RCC viability, measured here: UOK124 cell viability); 14.8 µM [falling, partial curve] in [12] (TFE3-RCC viability, measured here: UOK145 cell viability). The viability change in test [4] was -22.8%. Further, the max response in [5] was -106%; in test [8], 10.1%. Besides, the z-score in test [12] (TFE3-RCC UOK109 viability, measured here: UOK109 Z-AUC) was -0.311; in [12] (TFE3-RCC viability, measured here: UOK124 Z-AUC) it was -0.0878; in [12] (TFE3-RCC viability, measured here: UOK145 Z-AUC), -0.00934.

`CC[C@@H]1Cc2cc(O)ccc2C2=C1c1ccc(O)cc1C[C@H]2CC`: the AC50 was 12.6 µM [falling, single point] in test [1] (measured here: GFP channel); 20 µM [falling, single point] in [1] (measured here: RFP channel); 53.6 µM [falling, partial curve] in test [2] (setting [18]); 37.9 µM [falling, full curve] in test [2] (setting [19]); 18.4 µM [falling, partial curve] in test [3] (setting [20]); 29.1 µM [falling, single point] in [3] (measured here: CBR control luciferase (viability counter)). In addition, the half-maximal activity concentration (AC50) in [13] was 50.1 µM [falling, single point]; in [6] it was 44.7 µM [falling, partial curve, poor fit]; in [7], 39.8 µM [falling, partial curve]. Further, the results for the max response in test [5], in test [8] and in [14] were -49.8%, -59.4% and -52.8%, respectively. Moreover, the 50% inhibitory concentration (IC50) in test [15] was 27.3 µM [falling, single point]; in test [16] it was 24.3 µM [falling, single point].

For `Cc1ccc(C(=O)Nc2ccc(S(=O)(=O)O)c3cc(S(=O)(=O)O)cc(S(=O)(=O)O)c23)cc1NC(=O)c1cccc(NC(=O)Nc2cccc(C(=O)Nc3cc(C(=O)Nc4ccc(S(=O)(=O)O)c5cc(S(=O)(=O)O)cc(S(=O)(=O)O)c45)ccc3C)c2)c1`, the AC50 in test [1] (measured here: GFP channel) is 2.82 µM [rising, full curve]; in test [1] (measured here: RFP channel) it was 3.98 µM [rising, full curve]; in [11] (setting [21]), 0.003 µM [rising, full curve, poor fit]. For the same compound, the max response in test [17] (measured here: cell count channel max response) stood at 46.1%; in [17] (measured here: lipid channel max response) it was 49.1%.
